PubChem BioAssay AID686938, Drosophila RNAi Screening Center | 2013
The deposit covers about 23,000 reagents; shown is an unselected part of those with a known target gene and a result. In the full data, 75 (0.33%) got an active call. 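Raw plate signals without normalisation; calls rest on plate z-scores that were not deposited; ratio present for only 364 wells.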 Reagents against one gene are numbered here. A plus sign joins genes that one reagent is predicted to hit. The record does not give: the dose of the treatment.

Purpose: 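Knock-downs reducing store-operated calcium influx in Drosophila cells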 (primary screen)
Cells: Drosophila S2R+ cells
Reagents: long dsRNA against Drosophila genes, about 0.25 µg dsRNA per well, roughly 10,000 cells
Timing: 5 days of knock-down before the calcium assay
Treatment: thapsigargin (SERCA pump blocker) to empty calcium stores; entry signal taken 4 min after adding it
Read-out: 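Per-well fluo-4 fluorescence in two replicates, unnormalised, measured in resting cells and 4 min after store depletion by the SERCA blocker thapsigargin; ratio of the two present in few wells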
Reading the numbers: calcium entry signal: higher = stronger calcium signal after store depletion; resting calcium signal: higher = higher resting calcium signal
Rule for the call: 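Called when the plate z-score of the entry-to-rest ratio, mean of duplicates, falls below −3; wells with low overall dye signal (Fmax z below −2) or more than five off-targets excluded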
Calls: active = strongly reduced calcium entry; inactive = no strong reduction

target gene	dsRNA no.	calcium entry signal, replicate 1 (fluorescence units)	calcium entry signal, replicate 2 (fluorescence units)	resting calcium signal, replicate 1 (fluorescence units)	resting calcium signal, replicate 2 (fluorescence units)	outcome
fest	1	3.55e7	3.83e7	1.72e7	1.91e7	inactive
mtg	1	5.04e7	3.73e7	2.21e7	1.69e7	inactive
Cyp4e1	1	4.37e7	3.74e7	2.06e7	1.92e7	inactive
Btnd	1	3.42e7	3.25e7	1.67e7	1.50e7	inactive
CG33958	1	4.97e7	4.32e7	2.12e7	2.07e7	inactive
CG33958	2	5.08e7	4.94e7	2.20e7	2.27e7	inactive
S-Lap1	1	4.84e7	2.82e7	3.19e7	1.34e7	inactive
cnn	1	4.05e7	4.43e7	1.90e7	1.87e7	inactive
cnn	2	3.48e7	3.43e7	1.77e7	1.63e7	inactive
CG31099	1	3.35e7	3.53e7	1.92e7	1.64e7	inactive
RhoGAP100F	1	2.93e7	3.46e7	1.29e7	1.68e7	inactive
CG17187	1	2.91e7	2.34e7	1.56e7	1.34e7	inactive
CG13398	1	3.64e7	4.20e7	1.84e7	1.93e7	inactive
CG14400	1	3.60e7	5.51e7	1.88e7	2.25e7	inactive
CR4575	1	3.27e7	4.71e7	1.65e7	2.26e7	inactive
CG10561	1	5.14e7		2.51e7		inactive
Ubc87F	1	3.25e7	4.67e7	1.60e7	6.11e7	inactive
unc-45	1	5.67e7	3.57e7	2.74e7	1.69e7	inactive
wapl	1	2.90e7	3.50e7	1.44e7	1.74e7	inactive
CG31415	1	3.12e7	3.11e7	1.58e7	1.40e7	inactive
CG5568	1	3.72e7	5.66e7	2.63e7	2.23e7	inactive
CG5568	2	3.04e7	3.68e7	1.51e7	1.88e7	inactive
Oseg5	1	5.78e7	5.53e7	3.01e7	2.42e7	inactive
CG31687 + Cdc23	1	3.38e7	4.49e7	1.64e7	2.25e7	inactive
